Entries after “also recorded” stand apart in the source; their conditions may differ.
assay: Extraction/separation test (solvent extraction of a Pr/Nd mixture); conditions: organic phase 0.3 mol/L in hexanol versus aqueous 0.1 mol/L Pr+Nd, 20° C.

SMILES | Phase separation
CCCCCCCCN(CCCCCCCC)C(=O)COCC(=O)O [Comparative Example 3, N,N-dioctyl-3-oxapentane-1,5-amic acid, reference compound] | indefinite phase separation
CCCCCCCCN(CCCCCCCC)C(=O)COCC(=O)O [Example 2, N,N-dioctyl-3-oxapentane-1,5-amic acid] | satisfactory; also recorded: definite
CCCCCCCCN(CCCCCCCC)C(=O)COCC(=O)O [Example 4, N,N-dioctyl-3-oxapentane-1,5-amic acid] | satisfactory; also recorded: definite
CCCCCCCCN(CCCCCCCC)C(=O)COCC(=O)O [Example 5, N,N-dioctyl-3-oxapentane-1,5-amic acid] | satisfactory; also recorded: definite
